From article PMC9274230

Protein sequences, listed by entry. Tags and fused reporters are not part of them. Lines headed by an entry give the natural chain unless they say otherwise; changes in a name come on top.
UniProt O95863: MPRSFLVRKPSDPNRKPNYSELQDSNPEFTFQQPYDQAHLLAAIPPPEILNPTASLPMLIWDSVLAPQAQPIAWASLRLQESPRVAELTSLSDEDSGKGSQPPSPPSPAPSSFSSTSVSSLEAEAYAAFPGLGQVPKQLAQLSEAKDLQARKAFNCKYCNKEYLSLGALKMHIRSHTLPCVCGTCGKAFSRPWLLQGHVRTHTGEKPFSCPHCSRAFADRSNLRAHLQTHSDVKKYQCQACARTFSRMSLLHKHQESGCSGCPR
UniProt O43707: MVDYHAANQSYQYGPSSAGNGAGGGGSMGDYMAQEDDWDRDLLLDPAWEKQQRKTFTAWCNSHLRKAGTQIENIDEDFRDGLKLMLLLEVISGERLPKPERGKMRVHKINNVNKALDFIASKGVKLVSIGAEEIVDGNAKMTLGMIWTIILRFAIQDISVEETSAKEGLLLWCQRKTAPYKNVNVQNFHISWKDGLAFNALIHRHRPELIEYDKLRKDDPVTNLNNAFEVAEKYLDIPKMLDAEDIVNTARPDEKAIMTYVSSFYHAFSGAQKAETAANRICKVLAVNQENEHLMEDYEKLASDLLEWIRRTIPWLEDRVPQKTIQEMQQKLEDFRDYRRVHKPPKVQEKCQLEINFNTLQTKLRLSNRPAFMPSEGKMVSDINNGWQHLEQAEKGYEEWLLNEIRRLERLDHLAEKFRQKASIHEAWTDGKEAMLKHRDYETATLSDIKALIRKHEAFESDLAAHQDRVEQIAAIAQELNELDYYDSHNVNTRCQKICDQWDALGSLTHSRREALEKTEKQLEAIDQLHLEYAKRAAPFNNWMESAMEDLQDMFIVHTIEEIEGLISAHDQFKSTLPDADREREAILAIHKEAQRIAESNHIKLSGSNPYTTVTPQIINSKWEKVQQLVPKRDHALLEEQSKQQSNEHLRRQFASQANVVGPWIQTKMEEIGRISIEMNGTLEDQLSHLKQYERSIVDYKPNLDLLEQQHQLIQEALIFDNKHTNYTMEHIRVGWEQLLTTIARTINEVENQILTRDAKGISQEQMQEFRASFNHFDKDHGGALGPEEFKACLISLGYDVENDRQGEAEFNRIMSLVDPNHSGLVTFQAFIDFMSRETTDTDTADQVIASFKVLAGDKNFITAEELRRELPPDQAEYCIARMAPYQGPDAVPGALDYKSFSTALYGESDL
UniProt O14983: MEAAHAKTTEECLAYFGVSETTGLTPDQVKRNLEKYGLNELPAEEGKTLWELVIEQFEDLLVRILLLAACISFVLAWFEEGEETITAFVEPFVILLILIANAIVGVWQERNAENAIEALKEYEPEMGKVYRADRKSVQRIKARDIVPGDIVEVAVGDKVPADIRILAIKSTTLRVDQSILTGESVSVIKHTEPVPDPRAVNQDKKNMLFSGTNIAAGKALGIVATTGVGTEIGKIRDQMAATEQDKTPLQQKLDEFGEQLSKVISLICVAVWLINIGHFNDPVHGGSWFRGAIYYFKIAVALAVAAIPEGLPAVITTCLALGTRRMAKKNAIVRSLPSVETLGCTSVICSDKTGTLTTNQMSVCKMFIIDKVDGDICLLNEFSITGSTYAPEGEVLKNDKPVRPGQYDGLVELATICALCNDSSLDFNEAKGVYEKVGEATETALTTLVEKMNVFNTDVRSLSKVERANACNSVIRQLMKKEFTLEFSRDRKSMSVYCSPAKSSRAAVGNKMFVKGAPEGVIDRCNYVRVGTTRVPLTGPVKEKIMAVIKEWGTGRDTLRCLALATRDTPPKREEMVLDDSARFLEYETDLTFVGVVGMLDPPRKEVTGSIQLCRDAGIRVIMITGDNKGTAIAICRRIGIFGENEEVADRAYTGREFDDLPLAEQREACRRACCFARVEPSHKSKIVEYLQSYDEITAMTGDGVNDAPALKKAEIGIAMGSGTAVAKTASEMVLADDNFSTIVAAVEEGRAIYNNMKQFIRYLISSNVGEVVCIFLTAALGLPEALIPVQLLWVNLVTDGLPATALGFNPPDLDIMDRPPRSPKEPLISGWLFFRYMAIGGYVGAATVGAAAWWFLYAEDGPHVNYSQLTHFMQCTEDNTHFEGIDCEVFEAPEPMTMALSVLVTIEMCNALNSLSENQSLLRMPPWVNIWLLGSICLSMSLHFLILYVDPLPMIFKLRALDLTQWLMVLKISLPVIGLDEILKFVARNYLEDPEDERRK
UniProt P07477: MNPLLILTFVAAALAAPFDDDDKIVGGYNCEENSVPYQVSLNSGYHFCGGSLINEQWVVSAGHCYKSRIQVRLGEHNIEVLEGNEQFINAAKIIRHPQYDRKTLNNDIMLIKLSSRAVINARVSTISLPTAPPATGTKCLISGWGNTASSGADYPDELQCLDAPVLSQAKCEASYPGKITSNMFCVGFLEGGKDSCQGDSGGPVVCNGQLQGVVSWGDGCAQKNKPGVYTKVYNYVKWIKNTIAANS
UniProt Q99729: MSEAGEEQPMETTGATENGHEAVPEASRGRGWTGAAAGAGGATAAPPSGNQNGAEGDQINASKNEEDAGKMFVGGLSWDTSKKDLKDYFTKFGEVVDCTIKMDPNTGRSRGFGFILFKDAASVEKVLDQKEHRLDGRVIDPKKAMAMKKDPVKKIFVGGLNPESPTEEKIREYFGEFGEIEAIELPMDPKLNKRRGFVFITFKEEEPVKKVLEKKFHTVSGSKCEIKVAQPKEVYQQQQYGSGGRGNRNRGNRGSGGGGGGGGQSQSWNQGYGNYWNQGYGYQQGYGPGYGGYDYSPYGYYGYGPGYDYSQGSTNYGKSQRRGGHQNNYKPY
UniProt P35580: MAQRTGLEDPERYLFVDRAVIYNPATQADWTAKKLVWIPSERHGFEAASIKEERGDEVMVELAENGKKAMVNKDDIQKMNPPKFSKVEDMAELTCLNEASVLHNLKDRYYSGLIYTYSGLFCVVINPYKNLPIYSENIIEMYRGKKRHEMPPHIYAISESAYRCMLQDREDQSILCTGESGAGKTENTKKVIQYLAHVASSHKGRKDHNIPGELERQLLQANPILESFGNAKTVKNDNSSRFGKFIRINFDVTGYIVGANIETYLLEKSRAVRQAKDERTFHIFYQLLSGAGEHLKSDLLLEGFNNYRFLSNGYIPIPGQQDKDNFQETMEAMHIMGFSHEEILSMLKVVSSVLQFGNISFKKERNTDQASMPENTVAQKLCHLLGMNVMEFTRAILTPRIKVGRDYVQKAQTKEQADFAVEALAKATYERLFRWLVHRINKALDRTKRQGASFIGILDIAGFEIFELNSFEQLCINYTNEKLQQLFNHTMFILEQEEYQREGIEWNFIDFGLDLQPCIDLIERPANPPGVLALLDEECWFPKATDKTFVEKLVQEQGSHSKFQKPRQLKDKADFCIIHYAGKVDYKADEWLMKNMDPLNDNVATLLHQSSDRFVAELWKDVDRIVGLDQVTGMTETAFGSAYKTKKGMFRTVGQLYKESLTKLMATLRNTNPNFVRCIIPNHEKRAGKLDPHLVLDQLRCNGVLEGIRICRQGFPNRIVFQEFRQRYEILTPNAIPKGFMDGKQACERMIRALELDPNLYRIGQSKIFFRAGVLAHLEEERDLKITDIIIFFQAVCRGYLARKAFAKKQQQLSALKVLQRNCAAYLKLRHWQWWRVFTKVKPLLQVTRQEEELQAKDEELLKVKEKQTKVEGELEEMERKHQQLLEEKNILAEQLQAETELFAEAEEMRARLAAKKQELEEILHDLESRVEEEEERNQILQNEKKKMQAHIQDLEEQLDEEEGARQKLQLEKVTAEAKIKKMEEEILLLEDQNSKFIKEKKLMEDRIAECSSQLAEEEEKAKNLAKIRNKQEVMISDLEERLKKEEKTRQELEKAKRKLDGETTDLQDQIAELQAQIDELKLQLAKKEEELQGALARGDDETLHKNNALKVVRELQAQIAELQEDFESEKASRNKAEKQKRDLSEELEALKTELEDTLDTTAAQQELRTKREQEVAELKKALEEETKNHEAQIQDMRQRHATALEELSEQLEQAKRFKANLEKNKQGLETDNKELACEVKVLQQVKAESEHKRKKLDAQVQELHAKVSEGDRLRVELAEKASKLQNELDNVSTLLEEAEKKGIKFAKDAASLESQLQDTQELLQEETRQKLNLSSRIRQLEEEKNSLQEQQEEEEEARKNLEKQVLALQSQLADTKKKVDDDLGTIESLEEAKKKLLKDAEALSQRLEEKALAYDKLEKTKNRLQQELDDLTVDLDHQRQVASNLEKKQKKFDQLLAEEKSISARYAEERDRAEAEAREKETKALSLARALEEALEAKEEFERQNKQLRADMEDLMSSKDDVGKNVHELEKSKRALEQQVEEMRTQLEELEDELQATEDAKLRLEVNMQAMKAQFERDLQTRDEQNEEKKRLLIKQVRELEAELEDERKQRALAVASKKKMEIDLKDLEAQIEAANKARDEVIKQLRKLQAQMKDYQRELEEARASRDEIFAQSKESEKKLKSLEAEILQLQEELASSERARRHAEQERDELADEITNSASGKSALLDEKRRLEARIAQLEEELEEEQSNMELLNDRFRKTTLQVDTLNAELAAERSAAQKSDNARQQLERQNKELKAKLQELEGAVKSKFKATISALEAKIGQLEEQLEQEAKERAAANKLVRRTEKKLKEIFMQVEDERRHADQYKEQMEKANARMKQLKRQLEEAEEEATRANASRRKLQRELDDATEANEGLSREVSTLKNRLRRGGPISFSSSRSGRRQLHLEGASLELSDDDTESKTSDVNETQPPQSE
UniProt P67809: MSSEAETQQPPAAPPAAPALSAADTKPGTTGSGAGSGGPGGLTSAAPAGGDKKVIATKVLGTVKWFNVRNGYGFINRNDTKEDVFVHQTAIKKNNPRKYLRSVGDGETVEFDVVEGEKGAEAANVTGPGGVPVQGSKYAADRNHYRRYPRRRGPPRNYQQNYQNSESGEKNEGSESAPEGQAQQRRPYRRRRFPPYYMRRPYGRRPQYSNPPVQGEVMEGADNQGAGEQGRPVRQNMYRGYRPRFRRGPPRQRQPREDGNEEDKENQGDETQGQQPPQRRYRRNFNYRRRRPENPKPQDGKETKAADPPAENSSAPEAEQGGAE
UniProt P02042: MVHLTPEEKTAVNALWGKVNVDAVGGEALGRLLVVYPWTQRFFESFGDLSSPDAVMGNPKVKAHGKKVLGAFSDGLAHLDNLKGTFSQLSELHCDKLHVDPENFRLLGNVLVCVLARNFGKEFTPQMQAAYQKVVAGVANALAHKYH

These substances were tested against Snail (human (endogenous in primary ectopic endometrial cells)) (UniProt O95863) (assay: affinity purification with mass spectrometry; endogenous snail precipitated with snail antibody (3879, Cell Signaling Technology) from lysate of primary ectopic endometrial cells (IP-MS Cell Lysis Buffer, overnight at 4°C; Protein A/G magnetic beads, 1 hour at room temperature); eluate digested with trypsin, LC-MS (TripleTOF 5600), proteins with unused ≥ 1.3; control group and group treated with 0.1 μm sunitinib for 24 hours).

binding	Substance
binds	Alpha-actinin-4 (from UniProt O43707 1-911)
binds	Sarcoplasmic/endoplasmic reticulum calcium ATPase 1 (from UniProt O14983 1-1001)
binds	Trypsin-1 (from UniProt P07477)
binds	Heterogeneous nuclear ribonucleoprotein A/B (from UniProt Q99729 1-332)
binds	Myosin-10 (from UniProt P35580 1-1976)
binds	Nuclease-sensitive element-binding protein 1 (from UniProt P67809 1-324)
binds	Hemoglobin subunit delta (from UniProt P02042 1-147)

No constants are given. Whether binding was seen depends on the method and setting. In cells and extracts the contact can be indirect. These calls come from enrichment with a bait or labelling near it, and not all partners need be listed.
